Target: serotonin 2B receptor (Arginine 388) (Homo sapiens, UniProt P41595)
Test: cell-based

By UniProt entry, the sequences of proteins in these tests, tags left out.
UniProt P41595, whole entry: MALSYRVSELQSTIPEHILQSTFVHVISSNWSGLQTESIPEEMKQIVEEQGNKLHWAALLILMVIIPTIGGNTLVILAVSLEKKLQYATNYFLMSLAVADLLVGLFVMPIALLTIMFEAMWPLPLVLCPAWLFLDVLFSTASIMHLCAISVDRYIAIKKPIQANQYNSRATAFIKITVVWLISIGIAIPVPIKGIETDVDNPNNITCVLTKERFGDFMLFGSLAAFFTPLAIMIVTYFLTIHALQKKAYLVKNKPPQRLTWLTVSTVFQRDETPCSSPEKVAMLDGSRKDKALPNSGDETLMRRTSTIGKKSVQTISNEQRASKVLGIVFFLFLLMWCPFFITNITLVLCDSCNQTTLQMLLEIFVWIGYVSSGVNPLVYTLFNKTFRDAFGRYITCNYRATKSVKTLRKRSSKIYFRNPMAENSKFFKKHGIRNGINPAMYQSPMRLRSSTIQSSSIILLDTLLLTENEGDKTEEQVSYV

`CC[C@@H](CO)NC(=O)[C@@H]1C=C2c3cccc4c3c(cn4C)C[C@H]2N(C)C1` [Methysergide] was tested, and the EC50 was 0.55 nM.

From patent publication US7348140B1, “Clinical indications for genotyping polymorphic variants of G-protein coupled receptors” (Acadia Pharmaceuticals, Inc., priority 2001, dated 2008)
